Earlier results as cited in article PMC9341340, “The gram-negative bacterium Escherichia coli as a model for testing the effect of carbonic anhydrase inhibition on bacterial growth” (Journal of Enzyme Inhibition and Medicinal Chemistry, 2022).

Target: T1, EcoCAγ (γ-CA)
T1 construct: gene yrdA
Details: read-out: KI (acetazolamide); CO2 hydration, 20 °C, pH 8.3, 20 mM TRIS, 20 mM NaClO4; mean of 3 assays, errors ±5–10%; same value stated as shown earlier by the same groups (b6)

- Ki: 248 nM
Structure (SMILES): CC(=O)Nc1nnc(S(N)(=O)=O)s1 [AZA, 5-acetamido-1,3,4-thiadiazole-2-sulphonamide]
